# In patent US20170037425A1, “METHOD FOR IMPROVING PLANT TRAIT” (SHANGHAI INSTITUTES FOR BIOLOGICAL SCIENCES, CHINESE …, priority 2012, published 2017):
# Experiment: Absorption and fluorescence of LEAT proteins and their mutants
# Assay type: physicochemical
# Details: for Fluorescence: fluorescence intensity in words, recombinant protein from E. coli
# Text: FIG. 7. Absorption spectra of YFP (A, B) and mCherry (E, F) and their mutants. (B) is a zoom in view of YFPmu4 and YFPmu7 in (A). (F) is a zoom in view of mCherrymu4 and mCherrymu7 in (E). Fluorescence of YFP (C) and mCherry (G) and their mutant. Water hydrolysis and O2 evolution activities of YFP (D) and mCherry (H) and their mutants under light. (A, B, C, E, F, G): absorption and fluorescence intensities were compared with same concentrations of proteins. Absorption intensity of non-mutated YFP or mCherry is considered as 1, and fluorescence intensity of non-mutated YFP or mCherry is considered as 100.
Substance,Fluorescence,"fluorescence, decreased to % of original (WT) protein (same protein concentration)","absorbance, decreased to % of original protein (same protein concentration)"
"YFP: yellow fluorescent protein, amino acid sequence SEQ ID NO: 8",strong,–,–
"mCherry: red fluorescent protein, amino acid sequence SEQ ID NO: 2",Srong,–,–
"mCherrymu5: mCherry mutant S151C S152C H166N K167M I202A, SEQ ID NO: 26",–,~5%,–
"mCherrymu3: mCherry mutant S151C S152C K167M, SEQ ID NO: 22",–,4%,40%
"eqFP611: fluorescent protein from Entacmaea quadricolor (AY130757), SEQ ID NO: 30",weak,–,–
"mCherrymu4: mCherry mutant S151C S152C K167M I202A, SEQ ID NO: 24",–,about 3%,–
